Assay results as given in the supplement of paper PMC6411743.
± gives the standard deviation of the averaged measurements. This is a selection; strong and weak results do not stand in their true shares. Most values lie at the level of the controls, where differences are scatter.

Amino acid sequences for entries named in this document (tags omitted). A change or cut given only in a name is not applied to a line headed by its entry.
UniProt Q9HD15: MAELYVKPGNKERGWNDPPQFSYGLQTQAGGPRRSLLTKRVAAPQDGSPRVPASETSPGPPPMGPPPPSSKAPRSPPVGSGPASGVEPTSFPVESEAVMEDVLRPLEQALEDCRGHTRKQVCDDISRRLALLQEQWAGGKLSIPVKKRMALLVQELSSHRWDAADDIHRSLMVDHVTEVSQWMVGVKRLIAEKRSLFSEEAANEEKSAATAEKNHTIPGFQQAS
UniProt Q9H845: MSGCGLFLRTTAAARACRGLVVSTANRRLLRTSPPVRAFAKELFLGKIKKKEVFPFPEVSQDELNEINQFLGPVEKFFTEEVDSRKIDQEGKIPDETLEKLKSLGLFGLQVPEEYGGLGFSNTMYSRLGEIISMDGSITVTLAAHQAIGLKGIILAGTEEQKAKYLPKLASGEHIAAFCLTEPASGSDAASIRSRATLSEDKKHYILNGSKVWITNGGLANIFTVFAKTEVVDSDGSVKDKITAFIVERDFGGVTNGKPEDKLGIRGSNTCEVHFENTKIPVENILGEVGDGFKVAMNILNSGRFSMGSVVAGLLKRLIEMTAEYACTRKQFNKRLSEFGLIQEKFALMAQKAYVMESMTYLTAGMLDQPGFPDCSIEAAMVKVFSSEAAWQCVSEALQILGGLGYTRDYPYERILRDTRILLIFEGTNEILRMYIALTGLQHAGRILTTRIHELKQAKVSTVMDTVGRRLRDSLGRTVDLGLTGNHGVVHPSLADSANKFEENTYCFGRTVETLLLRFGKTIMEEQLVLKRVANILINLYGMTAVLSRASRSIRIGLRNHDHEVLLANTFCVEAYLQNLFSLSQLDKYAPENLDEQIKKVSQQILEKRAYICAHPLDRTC
UniProt Q9NP80: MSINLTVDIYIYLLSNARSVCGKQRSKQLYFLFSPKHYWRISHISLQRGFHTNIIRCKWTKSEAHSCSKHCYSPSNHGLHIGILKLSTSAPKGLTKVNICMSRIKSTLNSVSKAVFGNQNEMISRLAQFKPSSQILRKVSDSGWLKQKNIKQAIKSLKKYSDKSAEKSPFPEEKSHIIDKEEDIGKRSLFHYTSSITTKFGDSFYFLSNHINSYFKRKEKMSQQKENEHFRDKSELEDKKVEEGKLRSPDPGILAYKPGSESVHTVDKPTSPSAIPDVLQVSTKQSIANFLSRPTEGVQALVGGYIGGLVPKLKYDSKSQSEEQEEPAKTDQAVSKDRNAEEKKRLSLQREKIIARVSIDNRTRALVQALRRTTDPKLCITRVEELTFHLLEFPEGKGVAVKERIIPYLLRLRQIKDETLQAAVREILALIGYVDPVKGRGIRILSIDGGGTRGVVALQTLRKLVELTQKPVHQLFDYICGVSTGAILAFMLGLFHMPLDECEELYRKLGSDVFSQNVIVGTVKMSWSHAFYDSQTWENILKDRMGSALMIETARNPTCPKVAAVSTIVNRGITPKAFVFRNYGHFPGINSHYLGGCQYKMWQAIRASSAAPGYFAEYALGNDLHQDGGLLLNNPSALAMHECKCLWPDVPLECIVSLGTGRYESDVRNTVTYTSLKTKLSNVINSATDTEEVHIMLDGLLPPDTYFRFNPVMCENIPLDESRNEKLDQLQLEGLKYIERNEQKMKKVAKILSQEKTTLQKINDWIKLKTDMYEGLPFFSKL
UniProt Q9H147: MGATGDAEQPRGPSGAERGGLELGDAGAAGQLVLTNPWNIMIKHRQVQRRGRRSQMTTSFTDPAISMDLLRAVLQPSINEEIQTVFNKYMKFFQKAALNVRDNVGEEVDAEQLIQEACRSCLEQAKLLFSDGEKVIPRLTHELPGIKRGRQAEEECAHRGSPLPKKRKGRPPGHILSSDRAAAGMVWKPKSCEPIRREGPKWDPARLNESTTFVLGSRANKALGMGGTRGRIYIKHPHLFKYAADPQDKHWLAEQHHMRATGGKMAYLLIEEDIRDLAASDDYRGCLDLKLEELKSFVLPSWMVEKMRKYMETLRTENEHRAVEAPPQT
UniProt Q9HD45: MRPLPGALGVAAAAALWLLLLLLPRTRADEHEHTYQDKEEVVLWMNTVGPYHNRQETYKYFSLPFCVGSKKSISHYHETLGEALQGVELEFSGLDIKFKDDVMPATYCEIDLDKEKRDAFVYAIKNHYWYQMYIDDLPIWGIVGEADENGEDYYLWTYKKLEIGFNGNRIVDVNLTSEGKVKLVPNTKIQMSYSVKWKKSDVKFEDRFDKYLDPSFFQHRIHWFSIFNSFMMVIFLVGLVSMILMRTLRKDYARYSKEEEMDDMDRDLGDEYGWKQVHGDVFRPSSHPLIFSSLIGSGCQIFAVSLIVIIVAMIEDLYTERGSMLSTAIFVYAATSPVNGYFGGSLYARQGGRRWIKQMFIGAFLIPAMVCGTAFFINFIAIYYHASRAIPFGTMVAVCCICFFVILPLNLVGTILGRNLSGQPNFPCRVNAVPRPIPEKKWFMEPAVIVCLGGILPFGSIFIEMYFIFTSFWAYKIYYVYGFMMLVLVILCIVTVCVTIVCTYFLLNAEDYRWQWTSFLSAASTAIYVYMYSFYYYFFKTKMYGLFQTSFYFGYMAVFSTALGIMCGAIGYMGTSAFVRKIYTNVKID
UniProt Q9H1A4, whole entry: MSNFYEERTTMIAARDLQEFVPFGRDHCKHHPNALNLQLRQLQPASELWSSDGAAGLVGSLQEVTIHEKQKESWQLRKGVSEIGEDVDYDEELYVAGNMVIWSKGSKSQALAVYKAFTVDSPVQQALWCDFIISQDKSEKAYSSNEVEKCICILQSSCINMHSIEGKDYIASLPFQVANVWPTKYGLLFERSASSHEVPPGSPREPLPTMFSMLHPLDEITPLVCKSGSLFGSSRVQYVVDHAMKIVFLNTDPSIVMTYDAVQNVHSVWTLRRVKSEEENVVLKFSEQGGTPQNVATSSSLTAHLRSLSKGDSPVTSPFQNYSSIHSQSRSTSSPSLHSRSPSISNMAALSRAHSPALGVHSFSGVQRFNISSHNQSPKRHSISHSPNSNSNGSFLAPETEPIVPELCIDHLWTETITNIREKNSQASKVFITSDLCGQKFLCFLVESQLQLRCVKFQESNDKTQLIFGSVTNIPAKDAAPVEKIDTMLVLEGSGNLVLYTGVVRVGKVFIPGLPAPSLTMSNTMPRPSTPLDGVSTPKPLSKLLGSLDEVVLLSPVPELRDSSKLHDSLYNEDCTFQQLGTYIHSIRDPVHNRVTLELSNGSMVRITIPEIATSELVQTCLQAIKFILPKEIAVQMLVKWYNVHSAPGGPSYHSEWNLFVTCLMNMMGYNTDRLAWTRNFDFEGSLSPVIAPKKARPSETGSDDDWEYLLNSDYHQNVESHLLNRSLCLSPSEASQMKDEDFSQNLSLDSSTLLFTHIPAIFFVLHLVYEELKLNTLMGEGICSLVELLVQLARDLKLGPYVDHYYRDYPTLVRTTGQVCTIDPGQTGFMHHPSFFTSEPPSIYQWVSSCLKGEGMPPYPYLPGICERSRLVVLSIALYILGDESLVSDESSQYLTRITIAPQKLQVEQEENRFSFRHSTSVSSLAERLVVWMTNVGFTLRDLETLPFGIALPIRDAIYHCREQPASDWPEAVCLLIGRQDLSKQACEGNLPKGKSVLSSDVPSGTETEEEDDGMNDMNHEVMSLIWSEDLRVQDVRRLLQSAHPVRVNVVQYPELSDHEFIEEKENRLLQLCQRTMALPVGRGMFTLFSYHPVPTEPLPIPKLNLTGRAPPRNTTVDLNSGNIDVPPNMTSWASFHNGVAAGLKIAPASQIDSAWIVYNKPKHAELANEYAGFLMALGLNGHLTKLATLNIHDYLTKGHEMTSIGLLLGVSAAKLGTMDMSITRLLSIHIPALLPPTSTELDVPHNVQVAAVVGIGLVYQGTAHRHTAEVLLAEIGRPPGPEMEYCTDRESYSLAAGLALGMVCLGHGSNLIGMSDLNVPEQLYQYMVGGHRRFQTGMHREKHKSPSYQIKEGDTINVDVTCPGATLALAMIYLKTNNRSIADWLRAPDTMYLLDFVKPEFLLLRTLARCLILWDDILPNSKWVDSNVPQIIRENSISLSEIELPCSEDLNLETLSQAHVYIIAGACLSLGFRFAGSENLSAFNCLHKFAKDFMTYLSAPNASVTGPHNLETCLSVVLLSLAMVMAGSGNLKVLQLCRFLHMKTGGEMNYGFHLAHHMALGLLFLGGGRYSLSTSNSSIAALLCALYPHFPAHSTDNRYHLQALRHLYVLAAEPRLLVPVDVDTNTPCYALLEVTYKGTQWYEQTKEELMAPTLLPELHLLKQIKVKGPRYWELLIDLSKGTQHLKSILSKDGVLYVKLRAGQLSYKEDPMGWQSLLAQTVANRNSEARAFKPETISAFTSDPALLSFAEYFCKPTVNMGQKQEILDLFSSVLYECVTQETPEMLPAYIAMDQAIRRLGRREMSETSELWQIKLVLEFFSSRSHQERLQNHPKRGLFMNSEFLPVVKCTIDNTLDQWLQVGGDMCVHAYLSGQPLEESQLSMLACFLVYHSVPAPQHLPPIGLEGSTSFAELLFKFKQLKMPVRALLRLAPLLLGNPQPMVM
UniProt Q9GZU8: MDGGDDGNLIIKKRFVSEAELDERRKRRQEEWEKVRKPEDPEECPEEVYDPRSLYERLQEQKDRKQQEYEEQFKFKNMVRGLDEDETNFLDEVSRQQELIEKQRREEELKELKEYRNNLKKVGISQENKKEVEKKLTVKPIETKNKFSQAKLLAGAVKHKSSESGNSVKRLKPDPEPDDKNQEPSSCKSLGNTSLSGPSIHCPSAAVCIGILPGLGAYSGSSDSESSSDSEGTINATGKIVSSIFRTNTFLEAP
UniProt Q9H4L5: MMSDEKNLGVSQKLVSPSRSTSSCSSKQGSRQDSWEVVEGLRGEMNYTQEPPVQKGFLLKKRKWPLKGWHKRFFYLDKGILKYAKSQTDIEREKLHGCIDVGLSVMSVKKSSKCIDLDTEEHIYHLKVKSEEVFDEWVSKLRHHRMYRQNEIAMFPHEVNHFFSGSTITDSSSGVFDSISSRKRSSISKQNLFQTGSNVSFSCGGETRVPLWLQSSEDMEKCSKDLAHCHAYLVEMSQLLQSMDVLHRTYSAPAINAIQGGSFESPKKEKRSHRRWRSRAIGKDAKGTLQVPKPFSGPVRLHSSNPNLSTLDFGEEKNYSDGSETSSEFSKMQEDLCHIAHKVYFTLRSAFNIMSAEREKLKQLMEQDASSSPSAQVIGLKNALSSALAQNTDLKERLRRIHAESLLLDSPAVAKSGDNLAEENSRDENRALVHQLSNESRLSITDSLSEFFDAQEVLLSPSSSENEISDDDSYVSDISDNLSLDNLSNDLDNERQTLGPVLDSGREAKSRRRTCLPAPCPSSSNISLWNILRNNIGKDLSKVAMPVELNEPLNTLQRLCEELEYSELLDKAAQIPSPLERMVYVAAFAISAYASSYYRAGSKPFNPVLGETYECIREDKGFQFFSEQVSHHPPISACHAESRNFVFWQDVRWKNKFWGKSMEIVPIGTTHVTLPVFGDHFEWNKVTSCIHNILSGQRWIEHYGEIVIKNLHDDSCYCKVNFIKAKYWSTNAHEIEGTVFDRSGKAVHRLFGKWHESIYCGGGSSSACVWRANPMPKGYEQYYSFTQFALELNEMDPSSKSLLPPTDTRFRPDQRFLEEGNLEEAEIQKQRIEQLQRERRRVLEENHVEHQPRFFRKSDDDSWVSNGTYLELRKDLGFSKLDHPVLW
UniProt Q9GZR5: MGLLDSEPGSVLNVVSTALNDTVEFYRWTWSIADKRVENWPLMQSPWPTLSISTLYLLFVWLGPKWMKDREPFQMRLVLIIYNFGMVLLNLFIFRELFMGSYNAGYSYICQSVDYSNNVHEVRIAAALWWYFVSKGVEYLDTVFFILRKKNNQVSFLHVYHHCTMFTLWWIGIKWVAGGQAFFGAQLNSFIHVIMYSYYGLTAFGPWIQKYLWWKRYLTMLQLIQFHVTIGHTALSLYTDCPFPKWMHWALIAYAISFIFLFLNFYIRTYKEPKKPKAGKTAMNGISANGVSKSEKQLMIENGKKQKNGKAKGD
UniProt Q9H4M9: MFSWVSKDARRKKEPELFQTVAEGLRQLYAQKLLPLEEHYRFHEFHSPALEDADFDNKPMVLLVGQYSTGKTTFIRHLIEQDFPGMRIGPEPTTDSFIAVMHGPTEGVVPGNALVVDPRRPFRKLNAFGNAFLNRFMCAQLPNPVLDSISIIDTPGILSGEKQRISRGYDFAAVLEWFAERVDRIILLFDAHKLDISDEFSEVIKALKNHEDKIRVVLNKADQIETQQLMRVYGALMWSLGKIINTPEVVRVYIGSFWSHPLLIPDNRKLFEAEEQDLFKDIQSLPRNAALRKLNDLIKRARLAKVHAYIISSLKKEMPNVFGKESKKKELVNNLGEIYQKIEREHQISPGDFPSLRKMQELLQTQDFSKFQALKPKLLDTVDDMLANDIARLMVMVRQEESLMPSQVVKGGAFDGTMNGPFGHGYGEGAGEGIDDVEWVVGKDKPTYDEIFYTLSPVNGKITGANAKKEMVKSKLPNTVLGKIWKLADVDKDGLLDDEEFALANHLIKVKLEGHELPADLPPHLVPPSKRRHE

Compound: Nc1ncnc2c1ncn2[C@@H]1O[C@H](COP(=O)(O)OP(=O)(O)NP(=O)(O)O)[C@@H](O)[C@H]1O [adenylyl imidodiphosphate]
Assay: NP40-soluble protein abundance relative to vehicle (solubility fold change) (ratio); higher = more soluble protein in presence of AMP-PNP
Conditions: concentration: 0.1mM
Method in brief: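 Eight concentrations, 0.1 to 10 mM, were tested on Jurkat crude lysate for 10 min at room temperature and then 3 min at 37 °C, in three independent experiments. The lysate was solubilised with 0.8% NP40 and benzonase, ultracentrifuged, and the supernatant TMT-labelled for LC-MS/MS. Each value is the fold change against the detergent-processed vehicle in its own replicate, from vsn-normalised intensities.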

Row | Target | NP40-soluble protein abundance
1 | RPAP3 (UniProt Q9H6T3) | 0.9855 ± 0.0059
2 | UniProt Q9H7Z6 | 1.03 ± 0.035
3 | SRA1 (UniProt Q9HD15) | 0.959 ± 0.022
4 | ACAD9 (UniProt Q9H845) | 0.9816 ± 0.0037
5 | WDR12 (UniProt Q9GZL7) | 1 ± 0.021
6 | UniProt Q9NP80 and related entries | 0.9861 ± 0.0041
7 | UniProt Q9HBM0 and related entries | 1.02 ± 0.018
8 | UniProt Q9H583 and related entries | 0.994 ± 0.041
9 | UniProt Q9H0P0 and related entries | 1 ± 0.018
10 | DNTTIP1 (UniProt Q9H147) | 0.998 ± 0.03
11 | UniProt Q9H7D7 and related entries | 1.03 ± 0.014
12 | RAB33B (UniProt Q9H082) | 1.02 ± 0.044
13 | PTGES2 (UniProt Q9H7Z7) | 0.994 ± 0.056
14 | UBA5 (UniProt Q9GZZ9) | 0.99 ± 0.017
15 | TM9SF3 (UniProt Q9HD45) | 1.02 ± 0.049
16 | WDR55 (UniProt Q9H6Y2) | 1.05 ± 0.015
17 | CCDC134 (UniProt Q9H6E4) | 1.01 ± 0.021
18 | ANAPC1 (UniProt Q9H1A4) | 1.01 ± 0.043
19 | UniProt Q9H334 and related entries | 0.947 ± 0.024

Row | Target | NP40-soluble protein abundance
20 | TAF9B (UniProt Q9HBM6) | 0.995 ± 0.024
21 | MSL2 (UniProt Q9HCI7) | 1.03 ± 0.042
22 | SMYD3 (UniProt Q9H7B4) | 0.987 ± 0.07
23 | CBX8 (UniProt Q9HC52) | 1.02 ± 0.024
24 | UniProt Q9H0V9 and related entries | 1.02 ± 0.051
25 | CHMP1A (UniProt Q9HD42) | 1.01 ± 0.034
26 | ANKRA2 (UniProt Q9H9E1) | 0.987 ± 0.091
27 | UniProt Q9GZU8 | 0.954 ± 0.047
28 | ETNK1 (UniProt Q9HBU6) | 1.02 ± 0.042
29 | UniProt Q9H4L5 and related entries | 0.984 ± 0.029
30 | UniProt Q9GZP4 | 1 ± 0.043
31 | UBE2T (UniProt Q9NPD8) | 1.01 ± 0.047
32 | UniProt Q9H8K7 | 0.997 ± 0.036
33 | UniProt Q9C0E8 and related entries | 0.986 ± 0.047
34 | UniProt Q9GZT8 and related entries | 1 ± 0.015
35 | SLC38A10 (UniProt Q9HBR0) | 0.987 ± 0.021
36 | UniProt Q9GZR5 | 0.952 ± 0.059
37 | EHD1 (UniProt Q9H4M9) | 0.9973 ± 0.0045

Same assay, conditions: concentration: 0.5mM

Row | Target | NP40-soluble protein abundance
38 | RPAP3 (UniProt Q9H6T3) | 1 ± 0.018
39 | UniProt Q9H7Z6 | 1.02 ± 0.043
40 | SRA1 (UniProt Q9HD15) | 0.954 ± 0.028
41 | ACAD9 (UniProt Q9H845) | 0.9943 ± 0.0032
42 | WDR12 (UniProt Q9GZL7) | 1.01 ± 0.047
43 | UniProt Q9NP80 and related entries | 0.9695 ± 0.0051
44 | UniProt Q9HBM0 and related entries | 0.9943 ± 0.008
45 | UniProt Q9H583 and related entries | 0.993 ± 0.014
46 | UniProt Q9H0P0 and related entries | 0.992 ± 0.033
47 | DNTTIP1 (UniProt Q9H147) | 1.01 ± 0.057
48 | UniProt Q9H7D7 and related entries | 0.963 ± 0.034
49 | RAB33B (UniProt Q9H082) | 1.04 ± 0.033
50 | PTGES2 (UniProt Q9H7Z7) | 0.972 ± 0.056
51 | UBA5 (UniProt Q9GZZ9) | 1 ± 0.018
52 | TM9SF3 (UniProt Q9HD45) | 1.04 ± 0.095
53 | WDR55 (UniProt Q9H6Y2) | 1.01 ± 0.04
54 | CCDC134 (UniProt Q9H6E4) | 1.02 ± 0.044
55 | ANAPC1 (UniProt Q9H1A4) | 0.951 ± 0.1
56 | UniProt Q9H334 and related entries | 1.016 ± 0.0046

Row | Target | NP40-soluble protein abundance
57 | TAF9B (UniProt Q9HBM6) | 0.982 ± 0.024
58 | MSL2 (UniProt Q9HCI7) | 1.01 ± 0.074
59 | SMYD3 (UniProt Q9H7B4) | 0.933 ± 0.06
60 | CBX8 (UniProt Q9HC52) | 1.011 ± 0.0052
61 | UniProt Q9H0V9 and related entries | 1 ± 0.073
62 | CHMP1A (UniProt Q9HD42) | 1.01 ± 0.067
63 | ANKRA2 (UniProt Q9H9E1) | 0.985 ± 0.035
64 | UniProt Q9GZU8 | 0.978 ± 0.07
65 | ETNK1 (UniProt Q9HBU6) | 0.979 ± 0.062
66 | UniProt Q9H4L5 and related entries | 0.996 ± 0.033
67 | UniProt Q9GZP4 | 0.984 ± 0.04
68 | UBE2T (UniProt Q9NPD8) | 1.01 ± 0.035
69 | UniProt Q9H8K7 | 0.991 ± 0.034
70 | UniProt Q9C0E8 and related entries | 1.02 ± 0.067
71 | UniProt Q9GZT8 and related entries | 0.981 ± 0.046
72 | SLC38A10 (UniProt Q9HBR0) | 1 ± 0.011
73 | UniProt Q9GZR5 | 0.968 ± 0.012
74 | EHD1 (UniProt Q9H4M9) | 0.962 ± 0.049
